One molecule from PMC2423471 can be followed below.

Results are given in words; binding and its absence hold for the method and conditions named. Binding seen in cells or lysates may run through a third protein. A yes stands for co-enrichment or nearness to the bait. Other partners may have been found.

The assay addresses TAP-tagged AgmISG15 (African Green Monkey (Cercopithecus aethiops)). Kind of assay: affinity purification with mass spectrometry; Tandem Affinity Purification of TAP-tagged ISG15 from 2fTGH (stable) or HekT (transient) lysates: IgG sepharose, TEV cleavage, anti-FLAG agarose, FLAG peptide elution, trypsin, nano-LC-MS/MS; the paper takes the hits as covalently ISGylated substrates.

B1: Phosphoglycerate mutase 2 (enzyme, UniProt P15259 1-253)
chain: MATHRLVMVRHGESTWNQENRFCGWFDAELSEKGTEEAKRGAKAIKDAKMEFDICYTSVLKRAIRTLWAILDGTDQMWLPVVRTWRLNERHYGGLTGLNKAETAAKHGEEQVKIWRRSFDIPPPPMDEKHPYYNSISKERRYAGLKPGELPTCESLKDTIARALPFWNEEIVPQIKAGKRVLIAAHGNSLRGIVKHLEGMSDQAIMELNLPTGIPIVYELNKELKPTKPMQFLGDEETVRKAMEAVAAQGKAK
B1: the binding result is “binds”.
